Some of the results follow.
What follows are targets tested with CC1Cc2ccccc2N1C(=O)C1CCCN(C1)C(=O)CCl (mixture of isomers) [TRIM25 ligand 11 (diastereomer mixture)] (assay: probe-labelled cysteine peptide fold change vs DMSO (competition) (log2 fold change); higher = less target engagement (more negative = stronger competition)). Conditions: 10 µM; THP-1; incubation time: 4 h.
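Note: competitive chemoproteomic profiling in live THP-1 cells with an iodoacetamide desthiobiotin (IA-DTB) probe, comparing probe-labelled peptide intensities in compound-treated cells against DMSO-treated controls.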

The chains behind the UniProt entries cited, without tags or fusion partners. Where a name states a change or a piece, a line headed by the entry shows the natural chain unless it says otherwise.
UniProt Q9BTW9: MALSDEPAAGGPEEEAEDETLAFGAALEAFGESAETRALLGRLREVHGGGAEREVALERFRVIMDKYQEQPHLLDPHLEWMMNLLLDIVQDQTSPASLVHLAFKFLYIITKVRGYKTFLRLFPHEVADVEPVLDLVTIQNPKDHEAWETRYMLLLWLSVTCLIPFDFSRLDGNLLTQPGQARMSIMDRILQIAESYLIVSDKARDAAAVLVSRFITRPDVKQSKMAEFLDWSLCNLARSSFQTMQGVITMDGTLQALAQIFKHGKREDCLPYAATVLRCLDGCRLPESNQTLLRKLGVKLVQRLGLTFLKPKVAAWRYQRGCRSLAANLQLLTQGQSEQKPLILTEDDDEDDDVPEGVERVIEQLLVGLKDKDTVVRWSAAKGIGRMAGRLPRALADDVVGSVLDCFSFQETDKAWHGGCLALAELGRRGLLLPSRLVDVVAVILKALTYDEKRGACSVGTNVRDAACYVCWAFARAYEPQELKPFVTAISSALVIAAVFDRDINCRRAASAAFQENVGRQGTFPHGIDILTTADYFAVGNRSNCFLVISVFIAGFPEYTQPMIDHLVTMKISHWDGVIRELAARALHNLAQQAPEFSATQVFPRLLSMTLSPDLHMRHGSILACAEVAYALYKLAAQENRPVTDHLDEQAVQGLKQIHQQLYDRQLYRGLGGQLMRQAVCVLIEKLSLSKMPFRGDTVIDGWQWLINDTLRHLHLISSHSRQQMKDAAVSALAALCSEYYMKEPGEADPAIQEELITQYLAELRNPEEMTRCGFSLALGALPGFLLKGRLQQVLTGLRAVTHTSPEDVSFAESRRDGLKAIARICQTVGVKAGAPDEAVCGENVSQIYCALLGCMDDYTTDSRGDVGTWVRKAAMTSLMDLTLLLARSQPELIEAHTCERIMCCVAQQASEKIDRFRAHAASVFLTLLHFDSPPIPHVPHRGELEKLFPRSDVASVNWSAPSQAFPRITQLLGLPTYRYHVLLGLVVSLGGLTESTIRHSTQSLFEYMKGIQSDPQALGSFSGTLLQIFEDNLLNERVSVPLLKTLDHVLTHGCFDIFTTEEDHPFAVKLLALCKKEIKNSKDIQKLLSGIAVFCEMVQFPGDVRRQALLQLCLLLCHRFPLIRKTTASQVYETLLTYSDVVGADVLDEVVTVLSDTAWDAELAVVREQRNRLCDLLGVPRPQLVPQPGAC
UniProt Q13395: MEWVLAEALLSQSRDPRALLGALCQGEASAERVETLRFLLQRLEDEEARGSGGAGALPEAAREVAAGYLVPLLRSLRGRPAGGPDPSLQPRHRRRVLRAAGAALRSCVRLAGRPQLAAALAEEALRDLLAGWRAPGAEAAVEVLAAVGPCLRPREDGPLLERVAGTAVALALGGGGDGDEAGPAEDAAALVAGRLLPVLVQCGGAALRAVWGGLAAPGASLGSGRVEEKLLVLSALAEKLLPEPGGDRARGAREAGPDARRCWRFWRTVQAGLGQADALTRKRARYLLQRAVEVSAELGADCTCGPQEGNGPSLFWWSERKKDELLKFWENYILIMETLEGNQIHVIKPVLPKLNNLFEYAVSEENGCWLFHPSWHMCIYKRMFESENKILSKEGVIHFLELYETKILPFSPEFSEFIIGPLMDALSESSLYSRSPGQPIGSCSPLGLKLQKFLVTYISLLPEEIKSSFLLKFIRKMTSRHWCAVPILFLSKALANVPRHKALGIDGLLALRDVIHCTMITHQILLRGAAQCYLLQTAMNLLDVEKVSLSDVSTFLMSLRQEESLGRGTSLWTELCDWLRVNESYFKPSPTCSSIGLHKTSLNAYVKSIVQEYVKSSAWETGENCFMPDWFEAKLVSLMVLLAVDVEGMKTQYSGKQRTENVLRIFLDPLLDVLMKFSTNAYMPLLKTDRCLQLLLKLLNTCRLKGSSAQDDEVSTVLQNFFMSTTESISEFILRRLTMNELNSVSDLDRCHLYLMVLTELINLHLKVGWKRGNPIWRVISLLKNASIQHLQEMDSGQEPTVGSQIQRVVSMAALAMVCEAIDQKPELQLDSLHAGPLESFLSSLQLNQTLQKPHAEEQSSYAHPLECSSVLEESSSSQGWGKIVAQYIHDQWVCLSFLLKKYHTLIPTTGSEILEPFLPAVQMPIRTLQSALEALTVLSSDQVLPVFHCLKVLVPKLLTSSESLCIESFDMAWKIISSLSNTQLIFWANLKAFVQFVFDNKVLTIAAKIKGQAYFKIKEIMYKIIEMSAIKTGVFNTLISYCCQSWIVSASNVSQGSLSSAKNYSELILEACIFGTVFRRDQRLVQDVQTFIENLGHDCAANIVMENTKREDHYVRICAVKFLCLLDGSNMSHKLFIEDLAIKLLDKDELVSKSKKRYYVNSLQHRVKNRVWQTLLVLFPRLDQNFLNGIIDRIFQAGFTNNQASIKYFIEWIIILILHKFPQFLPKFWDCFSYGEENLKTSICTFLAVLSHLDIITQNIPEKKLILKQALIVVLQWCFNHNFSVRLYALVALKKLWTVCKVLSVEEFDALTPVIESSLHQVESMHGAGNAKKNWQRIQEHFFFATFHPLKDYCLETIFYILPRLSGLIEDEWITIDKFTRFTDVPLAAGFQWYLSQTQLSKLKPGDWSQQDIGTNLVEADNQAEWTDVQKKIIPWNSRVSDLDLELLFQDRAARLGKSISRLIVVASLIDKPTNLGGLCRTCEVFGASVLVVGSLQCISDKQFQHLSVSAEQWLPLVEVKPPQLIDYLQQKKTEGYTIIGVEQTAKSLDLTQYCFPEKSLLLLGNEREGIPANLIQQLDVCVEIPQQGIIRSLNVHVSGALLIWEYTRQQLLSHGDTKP
UniProt Q15813: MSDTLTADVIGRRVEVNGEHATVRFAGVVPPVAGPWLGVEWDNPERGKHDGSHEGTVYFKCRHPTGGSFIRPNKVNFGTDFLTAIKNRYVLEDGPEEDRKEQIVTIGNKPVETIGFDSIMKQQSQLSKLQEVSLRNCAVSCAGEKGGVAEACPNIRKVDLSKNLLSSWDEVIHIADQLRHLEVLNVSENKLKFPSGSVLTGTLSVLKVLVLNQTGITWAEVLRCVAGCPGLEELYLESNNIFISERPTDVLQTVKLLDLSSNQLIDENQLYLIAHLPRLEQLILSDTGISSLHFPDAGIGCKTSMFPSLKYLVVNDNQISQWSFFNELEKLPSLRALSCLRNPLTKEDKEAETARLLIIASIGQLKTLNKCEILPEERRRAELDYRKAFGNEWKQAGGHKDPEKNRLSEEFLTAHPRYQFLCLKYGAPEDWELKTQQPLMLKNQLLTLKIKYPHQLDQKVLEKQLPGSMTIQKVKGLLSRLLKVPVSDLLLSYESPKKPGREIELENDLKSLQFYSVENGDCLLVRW
UniProt Q8TC07: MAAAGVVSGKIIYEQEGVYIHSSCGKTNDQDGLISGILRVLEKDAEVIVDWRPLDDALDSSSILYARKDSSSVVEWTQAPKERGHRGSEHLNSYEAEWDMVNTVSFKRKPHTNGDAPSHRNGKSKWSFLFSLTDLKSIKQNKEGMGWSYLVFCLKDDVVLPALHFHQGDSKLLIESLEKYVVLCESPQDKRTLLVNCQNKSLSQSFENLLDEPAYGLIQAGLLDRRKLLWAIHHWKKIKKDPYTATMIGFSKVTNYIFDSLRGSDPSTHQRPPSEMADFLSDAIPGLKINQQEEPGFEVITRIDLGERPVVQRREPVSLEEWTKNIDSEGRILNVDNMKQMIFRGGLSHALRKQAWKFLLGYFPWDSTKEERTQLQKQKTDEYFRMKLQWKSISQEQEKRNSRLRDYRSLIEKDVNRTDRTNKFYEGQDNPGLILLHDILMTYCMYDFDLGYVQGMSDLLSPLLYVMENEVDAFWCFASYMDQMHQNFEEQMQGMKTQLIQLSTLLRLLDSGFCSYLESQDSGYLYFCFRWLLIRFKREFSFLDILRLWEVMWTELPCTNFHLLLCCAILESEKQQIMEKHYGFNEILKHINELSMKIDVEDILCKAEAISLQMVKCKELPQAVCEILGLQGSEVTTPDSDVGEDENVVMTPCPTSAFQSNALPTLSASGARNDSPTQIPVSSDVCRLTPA
UniProt P26639: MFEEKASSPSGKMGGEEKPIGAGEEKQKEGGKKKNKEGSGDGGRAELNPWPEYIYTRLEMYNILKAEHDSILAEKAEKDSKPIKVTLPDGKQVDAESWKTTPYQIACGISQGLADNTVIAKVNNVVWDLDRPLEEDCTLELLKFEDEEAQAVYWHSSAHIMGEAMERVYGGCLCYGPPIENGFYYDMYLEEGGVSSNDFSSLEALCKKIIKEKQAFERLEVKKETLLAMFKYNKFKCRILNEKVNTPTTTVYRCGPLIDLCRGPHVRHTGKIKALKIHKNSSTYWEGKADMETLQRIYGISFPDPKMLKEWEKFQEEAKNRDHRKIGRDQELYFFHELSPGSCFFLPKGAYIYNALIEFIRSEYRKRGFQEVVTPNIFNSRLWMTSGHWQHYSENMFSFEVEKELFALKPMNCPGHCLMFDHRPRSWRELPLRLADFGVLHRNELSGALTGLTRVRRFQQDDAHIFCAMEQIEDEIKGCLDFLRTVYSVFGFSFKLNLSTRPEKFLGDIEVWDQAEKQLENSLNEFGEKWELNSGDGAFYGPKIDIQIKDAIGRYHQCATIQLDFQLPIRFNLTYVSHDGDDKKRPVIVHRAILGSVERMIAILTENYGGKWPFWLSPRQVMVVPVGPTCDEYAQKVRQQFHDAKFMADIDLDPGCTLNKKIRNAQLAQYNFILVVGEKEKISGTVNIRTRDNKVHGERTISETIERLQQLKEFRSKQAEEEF
UniProt O75410: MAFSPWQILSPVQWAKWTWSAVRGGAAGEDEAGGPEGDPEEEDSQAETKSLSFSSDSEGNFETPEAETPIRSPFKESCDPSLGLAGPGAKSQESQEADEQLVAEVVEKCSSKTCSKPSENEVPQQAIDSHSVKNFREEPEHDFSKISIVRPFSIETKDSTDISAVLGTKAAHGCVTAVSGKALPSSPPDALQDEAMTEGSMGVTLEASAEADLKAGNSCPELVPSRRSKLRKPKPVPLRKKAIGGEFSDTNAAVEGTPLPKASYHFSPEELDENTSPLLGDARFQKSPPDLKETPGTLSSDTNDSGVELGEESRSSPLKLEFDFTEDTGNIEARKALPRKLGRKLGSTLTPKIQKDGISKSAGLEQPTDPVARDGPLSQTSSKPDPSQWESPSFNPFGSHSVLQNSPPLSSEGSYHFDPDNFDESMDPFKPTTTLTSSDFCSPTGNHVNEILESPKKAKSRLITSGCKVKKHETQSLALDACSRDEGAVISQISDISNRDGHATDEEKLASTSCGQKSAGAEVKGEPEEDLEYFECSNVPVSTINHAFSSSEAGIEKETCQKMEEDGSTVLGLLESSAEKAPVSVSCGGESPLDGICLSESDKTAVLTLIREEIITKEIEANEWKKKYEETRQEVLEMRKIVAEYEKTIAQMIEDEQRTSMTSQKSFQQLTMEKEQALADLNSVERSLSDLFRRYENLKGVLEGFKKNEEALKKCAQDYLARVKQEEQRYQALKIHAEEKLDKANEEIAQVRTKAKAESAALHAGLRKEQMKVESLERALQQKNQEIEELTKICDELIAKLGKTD
UniProt Q99426: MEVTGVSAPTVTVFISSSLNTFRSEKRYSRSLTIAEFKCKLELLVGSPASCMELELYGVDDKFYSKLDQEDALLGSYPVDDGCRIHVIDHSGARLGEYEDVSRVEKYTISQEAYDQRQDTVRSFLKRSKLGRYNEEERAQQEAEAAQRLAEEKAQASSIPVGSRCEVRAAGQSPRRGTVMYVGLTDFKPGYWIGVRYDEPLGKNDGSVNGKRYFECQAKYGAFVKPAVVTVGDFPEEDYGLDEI
UniProt Q96BW9: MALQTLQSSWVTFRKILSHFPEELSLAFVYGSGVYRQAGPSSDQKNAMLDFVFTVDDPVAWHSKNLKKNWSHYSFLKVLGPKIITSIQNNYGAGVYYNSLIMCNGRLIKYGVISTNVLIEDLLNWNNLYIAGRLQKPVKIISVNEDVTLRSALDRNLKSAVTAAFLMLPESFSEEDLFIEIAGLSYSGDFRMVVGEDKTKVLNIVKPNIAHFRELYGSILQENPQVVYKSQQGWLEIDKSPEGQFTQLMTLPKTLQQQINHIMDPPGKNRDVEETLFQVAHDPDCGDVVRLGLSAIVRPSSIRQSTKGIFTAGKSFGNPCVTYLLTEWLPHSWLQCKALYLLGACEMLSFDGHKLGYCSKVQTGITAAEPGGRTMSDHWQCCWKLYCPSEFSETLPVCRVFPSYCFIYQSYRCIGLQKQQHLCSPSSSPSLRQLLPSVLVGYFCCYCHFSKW
UniProt Q969E4: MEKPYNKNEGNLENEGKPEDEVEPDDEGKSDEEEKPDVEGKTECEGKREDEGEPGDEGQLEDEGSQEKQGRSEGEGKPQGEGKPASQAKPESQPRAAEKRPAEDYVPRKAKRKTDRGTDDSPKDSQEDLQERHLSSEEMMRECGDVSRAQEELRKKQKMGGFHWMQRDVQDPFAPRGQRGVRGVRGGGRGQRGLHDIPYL

Target	probe-labelled cysteine peptide fold change
SYK_P43405_206_DNNGSYALCLLHEGK (UniProt P43405)	-0.078
TBCD_Q9BTW9_899_SQPELIEAHTCER (UniProt Q9BTW9)	0.15
TATDN1_Q6P1N9_168_CVGGVVHSFDGTK (UniProt Q6P1N9)	-0.0418
TACO1_Q9BSH4_234_FICDASSLHQVR (UniProt Q9BSH4)	0.266
TARBP1_Q13395_592_VNESYFKPSPTCSSIGLHK (UniProt Q13395)	0.0579
TBCE_Q15813_371_CEILPEER (UniProt Q15813)	-0.11
TBC1D15_Q8TC07_184_YVVLCESPQDK (UniProt Q8TC07)	0.12
SZT2_Q5T011_2339_CPVVVDSSSAQNGAPR (UniProt Q5T011)	0.00622
TANC1_Q9C0D5_1611_LQCGENGPAHPLPSK (UniProt Q9C0D5)	0.129
TARS_P26639_630_QVMVVPVGPTCDEYAQK (UniProt P26639)	-0.135
TACC1_O75410_482_KHETQSLALDACSR (UniProt O75410)	0.0569
TBCD_Q9BTW9_269_REDCLPYAATVLR (UniProt Q9BTW9)	0.0256
TACC3_Q9Y6A5_662_CEELHGK (UniProt Q9Y6A5)	-0.00897
SYPL1_Q16563_193_IATGHNIIDELPPCK (UniProt Q16563)	0.0551
TBCB_Q99426_216_YFECQAK (UniProt Q99426)	0.0354
TARDBP_Q13148_39_VTEDENDEPIEIPSEDDGTVLLSTVTAQFPGACGLR (UniProt Q13148)	-0.206
TBL3_Q12788_597_NNECVR (UniProt Q12788)	0.0734

Reprinted at random: 2 entries already listed
Target	probe-labelled cysteine peptide fold change
TBC1D15_Q8TC07_184_YVVLCESPQDK (UniProt Q8TC07)	0.12
SZT2_Q5T011_2339_CPVVVDSSSAQNGAPR (UniProt Q5T011)	0.00622

Later entries.

Target	probe-labelled cysteine peptide fold change
SYTL1_Q8IYJ3_290_VHVIQCQGLAAAR (UniProt Q8IYJ3)	-0.0395
TBC1D1_Q86TI0_387+390_APAQLCEGCPLQSLHK (UniProt Q86TI0)	-0.0391
TAMM41_Q96BW9_285_DVEETLFQVAHDPDCGDVVR (UniProt Q96BW9)	-0.131
SYK_P43405_89+101_THASPADLCHYHSQESDGLVCLLK (UniProt P43405)	0.0294
TBCB_Q99426_51_LELLVGSPASCMELELYGVDDK (UniProt Q99426)	0.169
TBL3_Q12788_298_VWEAASGQCVYTQAQPPGPGQELTHCTLAHTAGVVLTATADHNLLLYEAR (UniProt Q12788)	0.0769
TADA2B_Q86TJ2_32+35_CTECQDIELCPECFSAGAEIGHHR (UniProt Q86TJ2)	0.502
TBCD_Q9BTW9_420_AWHGGCLALAELGR (UniProt Q9BTW9)	-0.00625
SYMPK_Q92797_848_GMGMNSPELLLLVENCPK (UniProt Q92797)	0.175
TBCK_Q8TEA7_74_LVVVAEHCER (UniProt Q8TEA7)	0.0182
TCEAL3_Q969E4_44_TECEGKREDEGEPGDEGQLEDEGSQEK (UniProt Q969E4)	-0.32
TBL3_Q12788_526_GLWCVQFSPMDQVLATASADGTIK (UniProt Q12788)	0.0333
TARS_P26639_107_TTPYQIACGISQGLADNTVIAK (UniProt P26639)	0.0466
TACC1_O75410_467_LITSGCK (UniProt O75410)	-0.104
TBRG4_Q969Z0_191_HLAFLAESCATLSQEQHSQELLAELLTHLER (UniProt Q969Z0)	-0.117
TBCD_Q9BTW9_457_GACSVGTNVR (UniProt Q9BTW9)	0.145
TARBP1_Q13395_1481_LIVVASLIDKPTNLGGLCR (UniProt Q13395)	-0.0926

— the supplement of paper PMC12067093, “Discovery and optimisation of a covalent ligand for TRIM25 and its application to targeted protein ubiquitination” (Chemical Science, 2025)
